Assay results reported in patent US20240183842A1, “Supercharged Biovesicles and Methods of Use Thereof” (The General Hospital Corporation, priority 2021, published 2024).

Experiments:
[1] = system: EVs from HEK293T cells; assay: Ni-NTA pull-down after incubation of recombinant proteins with purified EVs (EV association); assay type: binding, human; conditions: incubated with purified EVs from HEK293T cells, then Ni-NTA resin
[2] = Ni-NTA resin pull-down of free recombinant His-tagged GFP proteins (EV-free); conditions: suspensions of recombinant protein without EVs
[3] = system: HEK293T EVs; assay: Enzymatic deglycosylation of EVs before +scProtein loading (Ni-NTA pull-down); assay type: binding, human; conditions: EV pretreatment with enzyme, compared to non-treated samples

+scGFP: positive supercharged eGFP, SEQ ID NO:2, recombinant His-tagged (Addgene #62937)
GFP fluorescence remained in suspension [1]: 55.9±6.8% | detectable fluorescence intensity captured by Ni-NTA resin [2]: 99.3±0.19%

Heparinase I
fold decrease of +scProtein fluorescence in the supernatant after Ni-NTA pull-down [3]: 74.1 fold

Heparinase III
fold decrease of +scProtein fluorescence in the supernatant after Ni-NTA pull-down [3]: 84.70 fold

eGFP
GFP fluorescence remained in suspension [1]: 96.1±7.1% | detectable fluorescence intensity captured by Ni-NTA resin [2]: 98.8±2.1%

−scGFP: negative supercharged eGFP, SEQ ID NO:3, recombinant His-tagged (Addgene #62936)
GFP fluorescence remained in suspension [1]: 99±0.3% | detectable fluorescence intensity captured by Ni-NTA resin [2]: 99.1±0.13%
